Laboratory results published in patent publication US12662478B2, “ATF6 modulators and uses thereof” (Altos Labs, Inc., priority 2019, dated 2026).
For at least one compound, name, drawing or mass did not settle the structure.

Target: T1, ATF6 (Homo sapiens, UniProt P18850)
T1 construct: endogenous in cells; host or cells: U2-OS (ATCC HTB-96) stably transduced with the Cignal Lenti ATF6 luc reporter (Qiagen #CLS-6031L)
T1 sequence (P18850 1-670): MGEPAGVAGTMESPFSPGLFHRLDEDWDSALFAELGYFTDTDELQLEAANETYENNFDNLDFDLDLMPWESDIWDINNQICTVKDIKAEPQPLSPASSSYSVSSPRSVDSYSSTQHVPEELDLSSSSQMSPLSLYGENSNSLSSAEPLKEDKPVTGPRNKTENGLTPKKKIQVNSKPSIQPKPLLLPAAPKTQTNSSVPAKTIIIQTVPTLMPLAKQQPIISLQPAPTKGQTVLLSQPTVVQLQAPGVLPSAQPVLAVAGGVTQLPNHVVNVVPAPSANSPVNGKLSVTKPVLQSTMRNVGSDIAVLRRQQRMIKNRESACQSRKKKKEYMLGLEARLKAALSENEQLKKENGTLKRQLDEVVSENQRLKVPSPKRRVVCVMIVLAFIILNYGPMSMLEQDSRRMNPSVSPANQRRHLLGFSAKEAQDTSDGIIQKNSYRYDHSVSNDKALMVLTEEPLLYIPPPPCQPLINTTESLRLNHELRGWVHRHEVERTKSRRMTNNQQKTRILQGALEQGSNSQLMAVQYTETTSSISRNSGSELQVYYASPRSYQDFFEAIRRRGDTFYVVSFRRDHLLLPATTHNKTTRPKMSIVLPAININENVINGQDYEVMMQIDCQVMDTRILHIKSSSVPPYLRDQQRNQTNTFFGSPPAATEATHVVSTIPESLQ
Assay: ERSE ATF6-luciferase assay in absence of ER stress (U2-OS ATF6 TRE-luciferase reporter cells)
Assay type: cell-based
Details: 10 μM test compound, 8 hr, normalized to maximal activation with Tg, Table 3-2
Experimental: To understand how exemplary compounds of the invention modulate the activity of ATF6 in absence or presence of endoplasmic reticulum (ER) stress, a Human bone osteosarcoma (U2-OS)-based TRE-luciferase reporter stable cell line was generated to determine the modulation of transcription of ATF6 target genes.
U2-OS cells were obtained from the American Type Culture Collection (ATCC HTB-96, ATCC Manassas, VA) and were cultured with growing medium containing Dulbecco's Modified Eagle's Medium (DMEM) (Cat. No.: SH30023.02, HyClone) supplemented with fetal bovine serum (FBS) 10% (Cat. No.: 16000044, Gibco) and 1% penicillin-streptomycin antibiotic cocktail (Cat. No.: SV30010, Hyclone). […]
After 8 hr of incubation, plates were cooled down to room temperature for 10 min prior to luciferase assays. […] Luminescence was read by integration of 1 s with a gain of 110 in a Synergy 4 Microplate reader. […]
The average activity determined from the wells containing vehicle only (DMSO, 0% of ATF6 activity) was used as blank and subtracted from the rest of measurements. The percentage of modulation of exemplary compound was calculated by normalizing values to potential maximal activation with Tg.
ATF6 activities of exemplary compounds at 1 and 10 μM in absence of Tg-induced ER stress in the U2-OS ATF6 TRE-luciferase reporter cells were determined and are shown in Table 3-2, and Table 3-3.

With O=C(Nc1cnn(Cc2ccc(C(F)(F)F)cc2)c1)c1cc(-c2ccco2)on1 [Ceapin-A8, reference compound] the “ATF6 activity @ 10 μM [%]” value was “-”.
